Data as given in PubChem BioAssay AID652272 (Drosophila RNAi Screening Center, 2013)
Assay: 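Finding fly genes that regulate Hedgehog signal transduction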 (primary screen). Cell system: Drosophila clone 8 (Cl8) cells. Knock-down reagent: long dsRNA against Drosophila genes. Read-out: 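Plate reader light from a firefly reporter under a ptc promoter fragment that responds to Hedgehog, with Renilla light as transfection reference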. Direction: firefly Hh reporter signal: higher = more ptc reporter light; Renilla reference signal: higher = more Renilla control light. Hit rule: 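Hit when the z-score averaged over two replicates is under -2 or over +3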. Calls: active = hit: reporter lowered or raised; inactive = not a hit.
The screen tested about 21,000 reagents; below is an unselected part of those with a known target gene and a result. In the full data, 503 (2.4%) were called active. 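Raw plate light values, not normalised; calls rest on replicate z-scores that were not deposited; hits include reporter decreases as well as increases.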 Unmarked entries are inactive. Reagents against one gene are numbered here. A plus sign joins genes that one reagent is predicted to hit. Reagent sequences are not shown. The record does not give: the amount of reagent, the time to read-out.

| Gene | reagent no. | firefly Hh reporter signal, replicate 1 | firefly Hh reporter signal, replicate 2 | firefly Hh reporter signal, replicate 3 | Renilla reference signal, replicate 1 | Renilla reference signal, replicate 2 |
| --- | --- | --- | --- | --- | --- | --- |
| CG2852 | 1 | 1.04e5 | 56480 | – | 2963 | 5657 |
| Crag | 1 | 1.03e5 | 90090 | – | 2215 | 2231 |
| Mst89B | 1 | 64790 | 1.24e5 | – | 1952 | 3581 |
| CG14082 | 1 | 1.38e5 | 1.42e5 | – | 4213 | 3957 |
| ben (bendless) | 1 | 70583 | 73723 | – | 1520 | 1685 |
| ben (bendless) | 2 | 1.10e5 | 2.95e5 | – | 3800 | 11992 |
| Rpt2 (Regulatory particle triple-A ATPase 2) | 1 | 43849 (active) | 17814 | – | 3216 | 1073 |
| HemK1 (HemK methyltransferase 1) | 1 | 64160 | 98624 | – | 2802 | 3888 |
| CG11249 | 1 | 87525 | 1.28e5 | – | 3461 | 3683 |
| CG3123 | 1 | 1.17e5 | 95286 | – | 2624 | 2525 |
| prel (preli-like) | 1 | 78725 | 75296 | – | 3585 | 3129 |
| laza (lazaro) | 1 | 1.46e5 | 1.23e5 | – | 6160 | 4716 |
| CAH9 (Carbonic anhydrase 9) | 1 | 1.28e5 | 1.50e5 | – | 4981 | 3496 |

Active calls (from the list above):
| Gene | reagent no. | firefly Hh reporter signal, replicate 1 | firefly Hh reporter signal, replicate 2 | firefly Hh reporter signal, replicate 3 | Renilla reference signal, replicate 1 | Renilla reference signal, replicate 2 |
| --- | --- | --- | --- | --- | --- | --- |
| Rpt2 (Regulatory particle triple-A ATPase 2) | 1 | 43849 (active) | 17814 | – | 3216 | 1073 |

The results go on:
| Gene | reagent no. | firefly Hh reporter signal, replicate 1 | firefly Hh reporter signal, replicate 2 | firefly Hh reporter signal, replicate 3 | Renilla reference signal, replicate 1 | Renilla reference signal, replicate 2 |
| --- | --- | --- | --- | --- | --- | --- |
| Pif1A + Pif1B | 1 | 1.13e5 | 1.55e5 | – | 4416 | 3915 |
| Pif1A + Pif1B | 2 | 1.59e5 | 77542 | – | 5949 | 3079 |
| Pif1A + Pif1B | 3 | 1.69e5 | 2.15e5 | – | 6296 | 5820 |
| 14-3-3epsilon | 1 | 5.69e5 | 70672 | – | 26790 | 1539 |
| CG9948 | 1 | 1.20e5 | 80730 | – | 5144 | 3824 |
| CG3631 | 1 | 1.59e5 | 1.59e5 | – | 3195 | 6032 |
| kon (kon-tiki) | 1 | 75744 | 51065 | – | 3178 | 1936 |
| Ir76b (Ionotropic receptor 76b) | 1 | 91621 | 1.23e5 | – | 2167 | 3540 |
| CG11710 | 1 | 85252 | 2.39e5 | – | 2086 | 8971 |
| CG10274 | 1 | 77980 | 66421 | – | 4340 | 2536 |
| CG6793 | 1 | 36107 | 56184 | 66390 | 6425 | 4417 |
| CG3906 | 1 | 73028 | 62180 | – | 3090 | 2448 |
| mRpL37 (mitochondrial ribosomal protein L37) | 1 | 64336 | 97725 | – | 1330 | 2528 |
| twe (twine) | 1 | 70594 | 70696 | – | 3427 | 3485 |
| CG4650 | 1 | 96107 | 74368 | – | 2624 | 7040 |
| Dic61B (Dynein intermediate chain at 61B) | 1 | 54488 | 41968 | – | 3626 | 2262 |
| CG43071 | 1 | 80244 | 1.48e5 | – | 2790 | 7453 |
| Sf3b6 (Splicing factor 3b subunit 6) | 1 | 46262 | 57008 | – | 6758 | 4474 |
| Rcd1 (Reduction in Cnn dots 1) | 1 | 69367 (active) | 69896 | – | 1255 | 1048 |
| CG9706 | 1 | 1.28e5 | 66787 | – | 4834 | 2898 |
| CG6770 | 1 | 97601 | 4.56e5 | 34285 | 2786 | 29888 |
| CG33673 | 1 | 6.66e5 | 3.05e5 | – | 33298 | 12419 |
| Gr58c (Gustatory receptor 58c) | 1 | 98203 | 38156 | – | 2440 | 3868 |
| CG5561 | 1 | 1.65e5 | 1.17e5 | – | 3723 | 2762 |
| CG32107 | 1 | 2.15e5 | – | – | 5096 | – |
| CG13337 | 1 | 1.02e5 | 61427 | – | 2645 | 4931 |
